Data reported in publication PMC6491818, “Novel 4-Acrylamido-Quinoline Derivatives as Potent PI3K/mTOR Dual Inhibitors: The Design, Synthesis, and in vitro and in vivo Biological Evaluation” (Frontiers in Chemistry, 2019).

Tests used:
[1] = Liver microsomal stability assay, HLM; settings: human, liver microsomes
[2] = Liver microsomal stability assay, RLM

Compound: CCCNCC(O)COc1ccccc1C(=O)CCc1ccccc1 (stereo not drawn) [Propafenone, reference compound]
- CLint scaled [1]: 190 mL/min/kg
- CLint scaled ([2]; Sprague-Dawley, rat, liver microsomes): 1180 mL/min/kg
- RLM Remaining% (T = 60min) ([2]; rat liver microsome, 60 min): 0.3%
